Experimental data as given in PubChem BioAssay AID1347423 (Functional Genomics Laboratory (NCATS/FGL), 2020).
In all, about 52,000 sequences went through this assay and about 210 (0.4%) were called active.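 Rule for the calls: active = gene whose silencing raises cell survival under the drug, median off-target-corrected z-score across its silencing RNAs 2 or more; inactive = the rest.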 The list shows a part of the results.

Assay: Resistance to Poly (ADP-Ribose) Polymerase inhibitor: Gene Identification via Genome-wide siRNA Screen
Details: mouse BRCA2 R2336H ES cells, olaparib, CellTiter-Glo viability; active compounds read high
How it was run: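 Genome-wide siRNA screen (3 siRNAs/gene, 20 nM) in mouse ES cells carrying hypomorphic BRCA2 R2336H; olaparib 500 nM added 48 h post-transfection, CellTiter-Glo viability 72 h later. Normalized to plate-median negative control; MAD z-scores, gene median, seed-adjusted.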

Row | Sequence | z-score
1 | CGGGUCUGCUCUUUGGAAATT against Yif1b | inactive: -1.08
2 | GCGUAAAUCUCCACACUACTT against V1ra9 | inactive: 2.16
3 | CCUACUACAUCCGCUACUGTT against Apba2 | inactive: -1.5
4 | GGUCUAUGCUGAUGCUUCUTT against Dhps | inactive: 0.618
5 | GCAGAGAGCACAAUAAAGCTT against 0710001P09Rik | inactive: 0.0234
6 | CCUAGUCCUGAUUUAUCAGTT against Bat1a | inactive: -0.339
7 | GGUCAAUUAUGAAGAGUUUTT against Calm3 | inactive: 1.59
8 | CGAAGUCUGAAACACAUGUTT against A730018C14Rik | inactive: 0.435
9 | GCCACGGGUAUAUCUAUAGTT against Tigd4 | inactive: -0.282
10 | GCAAUGCGACGUGCUCUAUTT against LOC330863 | inactive: -0.895
11 | GCAAUUUCCUCUCGAGACGTT against Olfr750 | inactive: 0.654
12 | GGAAGGUGUUCGUAGAGAATT against Mad2l1 | inactive: 1.54
13 | GCAGCUCUAGGUGUUCAGUTT against Gje1 | inactive: -0.154
14 | GGAUUGUAAUCAAAUGUGCTT against Plekhh2 | inactive: 0.147
15 | GGCCUGUCUCUCUUAUUAATT against Btg2 | inactive: -0.799
16 | GAAAGAAACCAUGUUCACATT against 1110008K04Rik | inactive: 0.0619
17 | CUUAGUGCUCUGGGAGCAGTT against Ms4a5 | inactive: -0.433
18 | UGCUGGAUUCCAUUGACCUTT against Olfr675 | inactive: -0.109
19 | GGUCUACAAUGUGAAAAUCTT against Clnk | inactive: -0.392
20 | GGUUGUAGGAGAGGAAGCCTT against Apob48r | inactive: -0.228
21 | CGACAUGAAGUGAUUCAUUTT against Zfp459 | inactive: 0.0617
22 | GUUACCCUGAAGGUCAAUATT against Gstm3 | inactive: 1.36
23 | GGUGUUGUCUGUGUUUUACTT against Olfr507 | inactive: 0.382
24 | CCAAUGUUACGAGAAACUUTT against Smug1 | inactive: 0.958
25 | GGACCAAAUGUAAGAAAAATT against Cstl1 | inactive: -1.58
26 | CCUAUAUUGAAUCUUCAACTT against Clptm1 | inactive: -0.0402
27 | GGAUGAGAGUAAGAUCUCGTT against Vipr2 | inactive: 1.22

Some values from the results shown:
CUUAGUGCUCUGGGAGCAGTT against Ms4a5 | z-score: inactive: -0.433
GCAGCUCUAGGUGUUCAGUTT against Gje1 | z-score: inactive: -0.154

Reformatted as tab-separated lines: part of the list above.
Row	Sequence	z-score
20	GGUUGUAGGAGAGGAAGCCTT against Apob48r	inactive: -0.228
21	CGACAUGAAGUGAUUCAUUTT against Zfp459	inactive: 0.0617

(continued)

Row | Sequence | z-score
28 | GUCCCUGAAAGAUGAAGAUTT against Gpsn2 | inactive: 0.589
29 | GGACAGUGACAAACUGAACTT against Caml | inactive: -1.18
30 | GGUCGUGCAUGACAACUAUTT against Itk | inactive: -0.0931
31 | GGCAUCUAAAGGAAAGAAATT against 1810030O07Rik | inactive: -1.87
32 | GGAAACAGAACCAAGUUAATT against Thy28 | inactive: 0.333
33 | GGAGAGAAUGUUUUGGAAUTT against Stat5b | inactive: 1.23
34 | GGAAUUUGUGGAGAAACUATT against Gabbr1 | inactive: -1.18
35 | GGACGGAGCUGUAAUUGCATT against Arhgef12 | inactive: -0.937
36 | UUUCUUGGUGGGAUUGACUTT against Taar7b | inactive: 0.329
37 | CGAUAGUUUACAUGCUGAATT against LOC73072 | inactive: 0.417
38 | GGUGACUUGGGCAUUUUUUTT against E130203B14Rik | inactive: -0.502
39 | GGAAGAAACACCAGUAAGATT against Hbp1 | inactive: 0.477
40 | GGCUUUUCAAUUCCACCUUTT against Arid5b | inactive: 0.42
41 | GGACUUGCAUUCUUAUGCUTT against 4930578C19Rik | inactive: -0.524
42 | GGAAAUCAGAGAGAAGAUGTT against Nubp1 | inactive: -0.45
43 | GGACAAAGUCUAGAAACUATT against Lrrc2 | inactive: -1.55
44 | GGAAGACUAGGAGAGACGGTT against E030024M05Rik | inactive: -0.179
45 | GAUCACACAUAUCAUCUCUTT against Dusp15 | inactive: 0.101
46 | GGUACUGUCGGUAUCCCACTT against Gcc1 | inactive: -0.371
47 | GGUAAAGAAUCUCAACAGCTT against Pet112l | inactive: 1.86
48 | UUGUGACCAAUUUCUGAAUTT against 4921509E05Rik | inactive: -0.101
49 | GCAAAUAUAGCAGUGAAAUTT against Nat1 | inactive: -0.646
50 | GCAUGAUGAUUCGUCAGACTT against Ero1l | inactive: 0.403
51 | GGGUGAAACCCAUAAAAAUTT against 1700049G17Rik | inactive: -0.013
52 | CGCUAUAACCAUUAGGUCUTT against Slc22a17 | inactive: -0.0804
53 | GCCGACUUUAAUGACUGCUTT against Cklfsf4 | inactive: 0.322
54 | GGGAAAUAAGGAGCUUCCUTT against Ptgs2 | inactive: -0.389

Row | Sequence | z-score
55 | GGCAUGAAUAGAAUUCUAGTT against Zfp367 | inactive: 0.132
56 | GGUUGCUGUGUUGAAGAAATT against Ttbk1 | inactive: -0.052
57 | GGAGUUGUUACUCUAUUUUTT against Pkd2l2 | inactive: 2.24
58 | GGAUAAUGAGCUGAACAUATT against Nek7 | inactive: -1.13
59 | GGAUGCCCUUGUCACAAAGTT against Fbl | inactive: -1.31
60 | GGCUGUUUCUGUCAUGGUUTT against Nup133 | inactive: -1.67
61 | GCUCAGAAUACAUGGAGCUTT against Btn1a1 | inactive: -1.08
62 | GGAAUGAUUUGGAAGAUAUTT against 1500002I11Rik | inactive: 0.148
63 | GGACUCAACUGCACUGUUGTT against 9030607L17Rik | inactive: 0.0395
64 | UAGAAUUGAUUGAGGACUCTT against Ly6c | inactive: 0.171
65 | CGGUAUCACGGUUAUCCUUTT against Olfr215 | inactive: 0.142
66 | CCGAGUGCCGACAAAGUGATT against DXImx40e | inactive: 2.3
67 | GGAGCCUUUAAUCUCAUUATT against Wbp1 | inactive: 1.04
68 | CCACAUGUUUGUCUCAAAATT against 4933433P14Rik | inactive: 0.91
69 | GGGAGUGCCCUCCUAAUAGTT against Ofd1 | inactive: -1.22
70 | GCUCUACAUCGAAUUGCUGTT against Lig4 | inactive: -0.874
71 | GCUGGGCUUCAACGAUUACTT against Efna4 | inactive: 0.78
72 | CGGCUUACCGUAUUCAUCGTT against Dhx32 | inactive: -0.784
73 | CCCGCUGGUGUUCCUUUGUTT against 2610039C10Rik | inactive: -0.97
74 | GCACUGCAACACUUGGUCCTT against Lcn12 | inactive: 0.494
75 | CCCAGAAUUUGAGUUACUCTT against D730018G16 | inactive: 0.947
76 | CCAGCAUAGAGUACCAGUGTT against Unc13d | inactive: -1.4
77 | GGAUUACCUUUUGUGUGACTT against Capzb | inactive: 0.325
78 | GGGAAAGAUUCAUGUUACUTT against Mug2 | inactive: 0.0996
79 | GCGAAAGCAGGAUACUCCUTT against BC051083 | inactive: 0.269
80 | GAACUGAGGAGCCUCAAAUTT against Klra20 | inactive: 0.771
81 | GGAAGCAAAGGAAAAGACUTT against Mia2 | inactive: -1.39

Reprinted at random: 2 entries already listed.
Row | Sequence | z-score
80 | GAACUGAGGAGCCUCAAAUTT against Klra20 | inactive: 0.771
76 | CCAGCAUAGAGUACCAGUGTT against Unc13d | inactive: -1.4

More entries follow.

Row | Sequence | z-score
82 | GGUGGAAGCCGAAGUAUCUTT against Krt1-15 | inactive: -0.0557
83 | CAGGCAUCACUUCAGGGUGTT against Klra21 | inactive: 0.47
84 | GCCAAUUGGCAGUUCUGCATT against Cd6 | inactive: -0.171
85 | GGUGGCUAAAAGCUCUUCCTT against Odc1 | inactive: -0.0899
86 | GGGUCUUCUGACAAUGCUUTT against Zfyve19 | inactive: -0.447
87 | GGAGCUCAGAUGCAAUGAGTT against Zfp393 | inactive: -0.714
88 | GGAUAACUAUAUUCCAGUGTT against Rhobtb3 | inactive: -0.461
89 | GGUCAGGUUCCUGACACAATT against Ppp6c | inactive: -1.47
90 | GGAGCGGAUGGAUGUUUGUTT against App | inactive: -0.453
91 | GGUAUAUUUGCCAAAUGAUTT against Klhdc1 | inactive: 0.778
92 | GGAUCUCUCACUGAUGCCATT against Ssfa2 | inactive: -0.522
93 | CCACCAGUAAGCAAAAGCGTT against Dtx1 | inactive: -0.113
94 | GCCUAAGUUCUAGCAAAAUTT against 4932411G14Rik | inactive: 0.544
95 | GGAAAGAGGAAAUCUUUAGTT against Furin | inactive: 0.0641
96 | GGAGGUUCAGAAAUUUGUCTT against Nola2 | inactive: -0.204
97 | GUGUGUUUACUCAUUUCCATT against H2-T3 | inactive: -0.369
98 | GGCAAAGUGAGUAAGACAGTT against Habp2 | inactive: -0.453
99 | GGAACAAAUCACCUGCUGUTT against Ext2 | inactive: 0.122
100 | GGACUCACAGGUUGAAAUATT against 1700018L24Rik | inactive: 0.136
101 | GGAAUUUUCAAGUUGAUGUTT against Kmo | inactive: -0.227
102 | GGCAUUGUUAGACUUGGCCTT against Slc7a7 | inactive: -0.173
103 | GGAUCAAUGUGUUCUCAUCTT against Cxcl5 | inactive: 0.874
104 | GCUUGCUCUCAUCGGAGAUTT against Bak1 | inactive: -0.954
105 | GCCUAUUGUAGUGUUACAUTT against LOC545288 | inactive: 0.103
